Reference: article PMC7052939
Results are given in words; binding and its absence hold for the method and conditions named. In cells and extracts the contact can be indirect. Some entries that bind do so weakly or less than the wild type.

Protein sequences, listed by entry. Tags and fused reporters are not part of them. Residues count along the entry.
UniProt P16144, residues 28-1822: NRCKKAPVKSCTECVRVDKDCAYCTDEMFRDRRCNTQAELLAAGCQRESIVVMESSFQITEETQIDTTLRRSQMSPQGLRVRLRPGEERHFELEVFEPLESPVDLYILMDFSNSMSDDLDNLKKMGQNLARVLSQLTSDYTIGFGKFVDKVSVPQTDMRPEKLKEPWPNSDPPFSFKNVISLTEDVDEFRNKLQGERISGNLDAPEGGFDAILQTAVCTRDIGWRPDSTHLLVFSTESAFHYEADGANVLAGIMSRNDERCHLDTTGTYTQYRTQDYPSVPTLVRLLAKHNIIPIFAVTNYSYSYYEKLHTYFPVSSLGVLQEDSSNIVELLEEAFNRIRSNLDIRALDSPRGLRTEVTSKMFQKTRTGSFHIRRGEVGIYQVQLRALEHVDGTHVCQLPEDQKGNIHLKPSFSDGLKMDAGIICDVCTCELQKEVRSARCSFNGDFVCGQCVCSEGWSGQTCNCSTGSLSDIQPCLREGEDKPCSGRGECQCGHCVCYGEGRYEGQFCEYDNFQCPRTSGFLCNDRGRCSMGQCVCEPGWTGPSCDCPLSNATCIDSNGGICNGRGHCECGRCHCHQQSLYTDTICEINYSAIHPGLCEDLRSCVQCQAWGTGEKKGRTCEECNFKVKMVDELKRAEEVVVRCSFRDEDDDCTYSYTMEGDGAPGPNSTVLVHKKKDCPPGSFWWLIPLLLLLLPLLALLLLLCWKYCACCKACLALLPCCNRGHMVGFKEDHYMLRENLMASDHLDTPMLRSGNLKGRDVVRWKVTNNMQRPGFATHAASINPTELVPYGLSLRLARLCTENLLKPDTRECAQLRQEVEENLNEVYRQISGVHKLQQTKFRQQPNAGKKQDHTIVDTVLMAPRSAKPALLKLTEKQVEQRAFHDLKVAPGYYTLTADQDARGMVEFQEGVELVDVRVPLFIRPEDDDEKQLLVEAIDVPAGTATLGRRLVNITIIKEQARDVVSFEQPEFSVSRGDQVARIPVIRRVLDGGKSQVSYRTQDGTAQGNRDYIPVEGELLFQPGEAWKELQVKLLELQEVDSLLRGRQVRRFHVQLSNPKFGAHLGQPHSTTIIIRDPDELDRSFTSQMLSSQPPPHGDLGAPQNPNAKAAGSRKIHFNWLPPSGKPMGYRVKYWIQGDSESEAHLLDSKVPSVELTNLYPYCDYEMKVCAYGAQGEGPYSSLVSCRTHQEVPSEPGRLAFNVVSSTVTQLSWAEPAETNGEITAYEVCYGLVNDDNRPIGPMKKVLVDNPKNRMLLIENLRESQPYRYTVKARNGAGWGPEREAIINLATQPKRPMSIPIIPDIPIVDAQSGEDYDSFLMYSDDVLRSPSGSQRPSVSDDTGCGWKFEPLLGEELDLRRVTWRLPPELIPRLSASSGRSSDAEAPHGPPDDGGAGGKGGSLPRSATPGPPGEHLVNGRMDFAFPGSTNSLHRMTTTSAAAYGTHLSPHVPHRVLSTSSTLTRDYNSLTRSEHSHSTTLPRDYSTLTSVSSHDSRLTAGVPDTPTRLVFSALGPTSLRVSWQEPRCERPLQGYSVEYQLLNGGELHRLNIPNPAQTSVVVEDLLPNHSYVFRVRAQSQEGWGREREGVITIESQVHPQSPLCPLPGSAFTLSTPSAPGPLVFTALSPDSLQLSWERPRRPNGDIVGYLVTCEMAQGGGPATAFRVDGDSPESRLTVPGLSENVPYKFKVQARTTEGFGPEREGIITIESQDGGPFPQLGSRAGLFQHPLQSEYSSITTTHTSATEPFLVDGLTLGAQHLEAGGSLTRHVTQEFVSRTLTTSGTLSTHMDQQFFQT
UniProt P05556: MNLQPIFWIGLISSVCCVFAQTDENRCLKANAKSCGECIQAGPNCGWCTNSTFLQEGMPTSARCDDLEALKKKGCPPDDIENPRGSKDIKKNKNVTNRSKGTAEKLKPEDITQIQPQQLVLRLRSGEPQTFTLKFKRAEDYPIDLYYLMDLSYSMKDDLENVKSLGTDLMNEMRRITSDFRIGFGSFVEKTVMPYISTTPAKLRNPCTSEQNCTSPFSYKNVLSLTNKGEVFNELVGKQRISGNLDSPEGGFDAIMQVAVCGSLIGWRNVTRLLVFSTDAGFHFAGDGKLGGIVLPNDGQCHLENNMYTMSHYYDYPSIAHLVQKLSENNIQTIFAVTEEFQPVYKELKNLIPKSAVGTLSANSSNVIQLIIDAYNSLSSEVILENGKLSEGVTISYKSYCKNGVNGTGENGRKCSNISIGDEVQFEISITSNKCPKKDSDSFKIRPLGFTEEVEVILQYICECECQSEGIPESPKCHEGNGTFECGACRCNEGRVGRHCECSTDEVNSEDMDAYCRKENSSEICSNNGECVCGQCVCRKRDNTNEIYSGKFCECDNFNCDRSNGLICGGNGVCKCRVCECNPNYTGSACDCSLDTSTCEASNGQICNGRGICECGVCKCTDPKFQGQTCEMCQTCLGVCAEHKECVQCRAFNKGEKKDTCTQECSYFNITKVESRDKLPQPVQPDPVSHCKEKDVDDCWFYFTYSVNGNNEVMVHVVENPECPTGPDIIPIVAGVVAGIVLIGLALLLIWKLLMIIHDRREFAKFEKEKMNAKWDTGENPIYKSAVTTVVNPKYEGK
UniProt P02751, residues 32-2477: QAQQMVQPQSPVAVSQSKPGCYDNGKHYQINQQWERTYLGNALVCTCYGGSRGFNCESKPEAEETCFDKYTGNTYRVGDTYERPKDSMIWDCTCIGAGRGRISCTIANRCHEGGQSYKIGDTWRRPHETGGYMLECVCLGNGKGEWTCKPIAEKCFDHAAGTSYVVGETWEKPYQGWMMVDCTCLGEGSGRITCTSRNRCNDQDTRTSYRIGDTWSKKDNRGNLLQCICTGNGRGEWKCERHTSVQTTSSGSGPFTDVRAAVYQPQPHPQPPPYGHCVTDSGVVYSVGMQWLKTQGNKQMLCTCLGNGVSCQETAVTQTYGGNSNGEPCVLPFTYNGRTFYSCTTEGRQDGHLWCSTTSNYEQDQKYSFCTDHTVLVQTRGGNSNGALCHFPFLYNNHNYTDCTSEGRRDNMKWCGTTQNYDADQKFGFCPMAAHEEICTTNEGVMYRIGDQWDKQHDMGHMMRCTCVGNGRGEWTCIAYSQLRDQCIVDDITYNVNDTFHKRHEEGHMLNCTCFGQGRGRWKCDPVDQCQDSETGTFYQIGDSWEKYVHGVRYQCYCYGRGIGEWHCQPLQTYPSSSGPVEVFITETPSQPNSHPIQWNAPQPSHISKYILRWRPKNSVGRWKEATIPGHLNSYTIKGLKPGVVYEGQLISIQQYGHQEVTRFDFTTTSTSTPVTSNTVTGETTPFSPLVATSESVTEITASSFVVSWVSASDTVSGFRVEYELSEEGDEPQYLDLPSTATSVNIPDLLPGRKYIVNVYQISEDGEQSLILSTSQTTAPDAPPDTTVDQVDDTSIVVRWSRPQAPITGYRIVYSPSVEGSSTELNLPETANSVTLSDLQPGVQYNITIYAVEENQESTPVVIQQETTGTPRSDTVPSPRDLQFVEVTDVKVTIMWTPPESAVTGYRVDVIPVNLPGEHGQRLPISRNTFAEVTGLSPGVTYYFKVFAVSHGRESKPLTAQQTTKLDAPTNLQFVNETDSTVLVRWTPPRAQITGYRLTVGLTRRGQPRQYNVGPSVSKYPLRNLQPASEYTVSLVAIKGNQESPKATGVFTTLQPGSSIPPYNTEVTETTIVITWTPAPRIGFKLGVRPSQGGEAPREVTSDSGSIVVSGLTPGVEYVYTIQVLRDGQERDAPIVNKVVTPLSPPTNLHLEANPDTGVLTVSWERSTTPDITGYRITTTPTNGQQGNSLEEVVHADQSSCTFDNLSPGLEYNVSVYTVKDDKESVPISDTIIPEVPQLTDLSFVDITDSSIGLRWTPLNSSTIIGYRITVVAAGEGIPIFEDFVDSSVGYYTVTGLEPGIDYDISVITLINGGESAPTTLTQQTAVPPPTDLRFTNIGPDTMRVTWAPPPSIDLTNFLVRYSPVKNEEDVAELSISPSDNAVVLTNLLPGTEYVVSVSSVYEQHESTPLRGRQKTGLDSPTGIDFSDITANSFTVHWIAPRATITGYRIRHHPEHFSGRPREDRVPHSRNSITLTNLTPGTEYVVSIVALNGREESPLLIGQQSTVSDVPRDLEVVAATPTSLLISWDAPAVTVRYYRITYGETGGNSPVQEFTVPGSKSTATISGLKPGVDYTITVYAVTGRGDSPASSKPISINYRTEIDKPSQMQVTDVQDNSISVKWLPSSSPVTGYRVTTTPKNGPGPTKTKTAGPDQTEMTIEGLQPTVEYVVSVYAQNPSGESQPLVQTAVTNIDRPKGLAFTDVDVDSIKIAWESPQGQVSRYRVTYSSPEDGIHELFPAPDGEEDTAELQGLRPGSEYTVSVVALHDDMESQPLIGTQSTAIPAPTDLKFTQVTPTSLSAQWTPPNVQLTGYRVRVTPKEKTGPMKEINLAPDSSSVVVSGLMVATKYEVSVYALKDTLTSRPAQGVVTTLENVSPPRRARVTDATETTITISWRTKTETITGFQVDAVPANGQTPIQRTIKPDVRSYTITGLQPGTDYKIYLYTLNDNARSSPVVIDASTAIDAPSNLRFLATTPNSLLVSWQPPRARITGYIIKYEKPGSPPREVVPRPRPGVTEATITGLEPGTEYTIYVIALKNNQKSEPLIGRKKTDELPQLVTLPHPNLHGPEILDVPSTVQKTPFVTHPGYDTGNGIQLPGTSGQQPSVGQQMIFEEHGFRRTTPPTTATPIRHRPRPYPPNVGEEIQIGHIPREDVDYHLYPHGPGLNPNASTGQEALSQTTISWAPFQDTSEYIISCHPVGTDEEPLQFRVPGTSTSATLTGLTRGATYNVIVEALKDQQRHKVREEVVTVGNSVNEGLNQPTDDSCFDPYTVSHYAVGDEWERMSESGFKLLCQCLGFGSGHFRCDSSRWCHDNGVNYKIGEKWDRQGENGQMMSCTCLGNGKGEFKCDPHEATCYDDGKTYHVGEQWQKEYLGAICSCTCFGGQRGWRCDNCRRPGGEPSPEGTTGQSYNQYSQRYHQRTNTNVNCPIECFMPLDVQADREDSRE

Columns and labels:
Assay in all cases: co-IP; endogenous proteins in MHCC-LM3 and Bel-7402 lysates (NP-40 lysis buffer, PMSF); pre-cleared with Protein A+G Agarose; 2 micrograms primary antibody overnight at 4°C; Protein A+G Agarose 3 hours at 4°C; washed five times with PBS; Western blot
[1] = molecular target: T1, ITGB7 (human (endogenous in MHCC-LM3 and Bel-7402)) (UniProt P26010)
T1 sequence: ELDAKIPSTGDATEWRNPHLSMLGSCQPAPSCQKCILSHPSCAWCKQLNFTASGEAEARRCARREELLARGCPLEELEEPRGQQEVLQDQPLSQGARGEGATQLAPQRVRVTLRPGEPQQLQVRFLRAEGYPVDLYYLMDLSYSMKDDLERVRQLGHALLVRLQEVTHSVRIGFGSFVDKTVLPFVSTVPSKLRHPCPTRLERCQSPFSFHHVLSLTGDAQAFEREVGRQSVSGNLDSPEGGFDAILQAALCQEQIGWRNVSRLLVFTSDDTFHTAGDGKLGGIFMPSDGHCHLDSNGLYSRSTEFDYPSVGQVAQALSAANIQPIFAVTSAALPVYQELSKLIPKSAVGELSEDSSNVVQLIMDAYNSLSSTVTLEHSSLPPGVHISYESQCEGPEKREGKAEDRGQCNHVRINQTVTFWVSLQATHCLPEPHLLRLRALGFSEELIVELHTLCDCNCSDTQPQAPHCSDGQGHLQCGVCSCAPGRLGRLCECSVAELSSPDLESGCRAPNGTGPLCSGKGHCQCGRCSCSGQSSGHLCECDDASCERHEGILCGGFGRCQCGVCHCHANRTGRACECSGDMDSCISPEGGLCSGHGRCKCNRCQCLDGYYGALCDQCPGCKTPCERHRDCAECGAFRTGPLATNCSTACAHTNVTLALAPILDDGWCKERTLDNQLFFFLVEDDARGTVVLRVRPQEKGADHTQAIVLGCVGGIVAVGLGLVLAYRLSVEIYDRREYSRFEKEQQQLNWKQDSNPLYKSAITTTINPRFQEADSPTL

[2] = molecular target: ITGB4 (human (endogenous in MHCC-LM3 and Bel-7402)) (UniProt P16144)
[3] = molecular target: ITGB1 (human (endogenous in MHCC-LM3 and Bel-7402)) (UniProt P05556)

binding [1]	binding [2]	binding [3]	Substance
binds	–	–	fibronectin (from UniProt P02751 32-2477)
binds	binds	binds	β-catenin (from UniProt P35222 1-781)
